# Reference: US20250215028A1, “SYNTHETIC GLYCEROPHOSPHOLIPIDS COMPRISING AT LEAST ONE REACTIVE FUNCTION, PROCESS FOR PREPARING SAME AND USES THEREOF IN DIFFERENT APPLICATIONS” (UNIVERSITE DE ROUEN-NORMANDIE, priority 2022, published 2025)
# At least one compound was matched to its structure with a doubt left.
# Target: T1, Spo20p-GFP (Saccharomyces cerevisiae, UniProt Q04359)
# T1 construct: expressed in transfected cells; host or cells: PC12 cells
# T1 sequence (Q04359 51-91 limits assumed): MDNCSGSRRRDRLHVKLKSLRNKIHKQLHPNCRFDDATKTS
# Test: Recruitment of Spo20p-GFP to the plasma membrane of PC12 cells after incubation with GPL (confocal microscopy)
# Type: cell-based
# Settings: GPL 100 μM, 5 min incubation, PC12 cells expressing Spo20p-GFP, FIG. 1
# Procedure: This example illustrates the interaction between GPL (Ia) or (Ib) and a phosphatidic acid (PA) mobilizing protein, the green-fluorescent protein Spo20p-GFP, expressed in target cells.
# For this purpose, GPL (Ia) and, for comparative purposes, a natural GPL PA 18:1-18:0 (referred to hereinbelow as GPL C1) sold under reference 840861C by Avanti Polar Lipids, are incubated for 5 min at a concentration of 100 μM, with PC12 cells expressing Spo20p-GFP.
# Similarly, GPL (Ib) and, for comparative purposes, a natural GPL PA 18:2-18:0 (referred to hereinbelow as GPL C2) sold under reference 840862C by Avanti Polar Lipids, are incubated for 5 min at a concentration of 100 μM, with PC12 cells expressing Spo20p-GFP.
# The GPL-free cell medium is used as a control (referred to hereinbelow as […]).
# A marker referred to hereinbelow as Membright (obtained from Mayeul Collot UMR-7021, Strasbourg) is incubated for 5 minutes on cells in media as prepared above to specifically mark the cells' plasma membrane.
compound,measurement,value
"CCCCC/C=C\C/C=C\CCCCCCCCC(=O)O[C@@H](COP(=O)(O)O)[C@H](CN=[N+]=[N-])OC(=O)CCCCCCCCCCCCCCCCC [GPL (Ib), (2S,3S)-4-azido-2-(linoleoyloxy)-3-(stearoyloxy)butyl hydrogen phosphate]",recruitment of the Spo20p-GFP protein to the plasma membrane,bring about recruitment of the Spo20p-GFP protein to the plasma membrane of PC12 cells in the same manner as do the corresponding natural GPLs
